This assay relates to Salmonella enterica serovar Typhimurium SL1344. In words: bacterial growth OD600 after 18 h with compound and polymyxin B; higher = more bacterial growth (less inhibition). As to conditions: 50 µM, Mueller-Hinton broth.

This is one part of the list. These are raw signals, not scaled to a control.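 First-pass screen: polymyxin B was added at a level that permeabilizes the Salmonella outer membrane while sparing the inner membrane. DMSO wells, with and without polymyxin B, defined maximum growth. Because plates differed from one another, each plate's data were ranked separately and the compounds with the lowest OD600 were carried forward as hits.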

On to `COCC(=O)N1CCC(Oc2ccc(C(=O)NCc3cccc(OC)c3)cc2)CC1`, for which, for the setting “polymyxin B 1 µg/mL”, the “bacterial growth OD600” value was 1.02.
For the molecule `O=C(Cn1cncn1)N1CCCC(CCc2c(F)cccc2F)C1` (centres undefined), the “bacterial growth OD600” value (polymyxin B 0.75 µg/mL) came out at 0.824.
Turning to `CS(=O)(=O)NCc1cccnc1N1CCN(c2ccccn2)CC1`, the “bacterial growth OD600” value (polymyxin B 1 µg/mL) came to 0.956.
On to `OC(c1ccccn1)C1CCN(c2nc3nonc3nc2N2CCCCCC2)CC1` (centres undefined), for which the “bacterial growth OD600” value (polymyxin B 1 µg/mL) stood at 0.883.
Consider `O=C1N(Cc2ccc(F)cc2)CCCC1(O)CN1CCC(Cn2cccn2)CC1` (centres undefined), for which the “bacterial growth OD600” value (polymyxin B 1 µg/mL) turned out to be 1.
Take `CC(C)CCC1(C2CCN(C(=O)c3cccc(F)c3F)CC2)NC(=O)N(Cc2ccccn2)C1=O` (centres undefined): the “bacterial growth OD600” value (polymyxin B 0.75 µg/mL) stood at 0.87.
`Nc1ncc(CN2CCC(N3CCC(C(=O)NCc4ccccn4)CC3)CC2)cn1`: the “bacterial growth OD600” value (polymyxin B 1 µg/mL) was determined as 1.12.
Regarding `Cn1nc(C(=O)N2CCCC(CCc3ccc(F)cc3F)C2)ccc1=O` (centres undefined), under “polymyxin B 0.75 µg/mL”, the “bacterial growth OD600” value is 0.645.
Regarding `Cn1ccnc1CN1CCC(CCC(=O)Nc2ccc3c(c2)OCCO3)CC1`, under “polymyxin B 1 µg/mL”, the “bacterial growth OD600” value was 1.06.

For the origin of these results see the supplement of paper PMC12889115.
